Reference: patent US11267830B2, “Flow battery and components thereof” (University of Massachusetts, priority 2017, dated 2022)

Assay: Symmetric flow cell galvanostatic cycling
Details: 0.01 M in DMSO, over 40 cycles, 20 mA, Nafion 212
Protocol: For the symmetric flow cell experiment, a flow cell with 3 layers of 250 μm carbon paper electrodes (AvCarb EP40A—they were received as thermally activated using a proprietary cycle) and 2 layers of Teflon gaskets were used in each half-side. Electrodes with an active area of 10 cm^2 were compressed by ˜33.3% in the assembled flow cell. Nafion 212 was selected as the membrane material. 25 mL of electrolyte (0.01 M of CVBH solution in DMSO) is used in each half-cell. This solution was prepared by oxidizing a 25 mL, 0.01M solution of CVBH from vanadium(iv) to vanadium(v) at 1.0 mA and mixing with a second 25 mL, 0.01 M solution of CVBH in the vanadium(iv) oxidation state (as synthesized). A peristaltic pump (Masterflex L/S Series) with silicon tubing (Masterflex, 1.6 mm inner diameter) drove the electrolyte through the flow cell at 80 mL min^−1.
On the strength of observations of high stability during static cell cycling, CVBH was investigated in a flow-battery architecture (FIG. 7A). Symmetric redox cycling of a 1:1 mixture of vanadium (iv/v) was carried out to probe the stability of the active species in a controlled manner. […] Measured UV-vis spectra were simulated using spectra of CVBH in the vanadium(iv) and vanadium(v) oxidation states as synthetic components to determine state of charge, as shown in FIG. 8. […]

Compound: O.O.O.O.O.O=C([O-])CN(O)CC(=O)[O-].O=C([O-])CN(O)CC(=O)[O-].[Ca].[V+4] [CVBH, Calcium(ii) vanadium(iv)bis-hydroxyiminodiacetate pentahydrate]
- charging capacity retained: ~83%
- discharging capacity retained: ~75%
